Where a name gives a salt, the structure may show the parent alone. This is one part of the list. The calls rarely recur for the same compound in another form.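 Kinases, fused to nanoluciferase, were expressed in K562 cells; luminescence was measured every 4 h from 2 to 18 h as percent of control (DMSO = 100%, positive control = 0%). A time point is decreased if signal falls significantly (2 sigma). Hits were called by the authors by a rule that is not shown; the count of time points alone does not decide it.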
Key:
Conditions in all cases: K562; 2-18 h
YES1 = YES1 (UniProt P07947); test: number of time points (of 5) at which kinase-Nluc abundance scored as decreased, DMSO-normalised (count); higher = more persistent destabilization
ZAK = ZAK (UniProt Q9NYL2); test: as above
ZAP70 = ZAP70 (UniProt P43403); test: as above
CDK4 = CDK4 (UniProt P11802); test: number of time points (of 4; 2 h point missing) at which kinase-Nluc abundance scored as decreased, DMSO-normalised (count); higher = more persistent destabilization
CDK7 = CDK7 (UniProt P50613); test: as above
CDK9 = CDK9 (UniProt P50750); test: as above

By UniProt entry, the sequences of proteins in these tests, tags left out. Where a name states a change or a piece, a line headed by the entry shows the natural chain unless it says otherwise.
UniProt P07947, whole entry, looked up: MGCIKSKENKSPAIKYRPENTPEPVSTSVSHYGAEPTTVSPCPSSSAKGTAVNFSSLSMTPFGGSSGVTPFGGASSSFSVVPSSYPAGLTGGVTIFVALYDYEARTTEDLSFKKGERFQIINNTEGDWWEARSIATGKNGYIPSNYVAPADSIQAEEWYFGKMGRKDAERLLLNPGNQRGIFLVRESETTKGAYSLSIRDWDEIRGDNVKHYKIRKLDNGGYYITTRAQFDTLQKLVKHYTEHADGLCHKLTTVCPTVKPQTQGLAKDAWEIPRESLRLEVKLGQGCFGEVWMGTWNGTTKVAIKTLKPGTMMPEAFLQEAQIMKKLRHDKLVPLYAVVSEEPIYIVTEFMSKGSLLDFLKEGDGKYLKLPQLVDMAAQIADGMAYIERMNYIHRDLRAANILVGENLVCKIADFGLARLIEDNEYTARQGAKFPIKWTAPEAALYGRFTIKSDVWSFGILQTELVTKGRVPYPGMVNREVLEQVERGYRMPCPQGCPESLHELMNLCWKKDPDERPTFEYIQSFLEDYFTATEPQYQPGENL
UniProt P43403: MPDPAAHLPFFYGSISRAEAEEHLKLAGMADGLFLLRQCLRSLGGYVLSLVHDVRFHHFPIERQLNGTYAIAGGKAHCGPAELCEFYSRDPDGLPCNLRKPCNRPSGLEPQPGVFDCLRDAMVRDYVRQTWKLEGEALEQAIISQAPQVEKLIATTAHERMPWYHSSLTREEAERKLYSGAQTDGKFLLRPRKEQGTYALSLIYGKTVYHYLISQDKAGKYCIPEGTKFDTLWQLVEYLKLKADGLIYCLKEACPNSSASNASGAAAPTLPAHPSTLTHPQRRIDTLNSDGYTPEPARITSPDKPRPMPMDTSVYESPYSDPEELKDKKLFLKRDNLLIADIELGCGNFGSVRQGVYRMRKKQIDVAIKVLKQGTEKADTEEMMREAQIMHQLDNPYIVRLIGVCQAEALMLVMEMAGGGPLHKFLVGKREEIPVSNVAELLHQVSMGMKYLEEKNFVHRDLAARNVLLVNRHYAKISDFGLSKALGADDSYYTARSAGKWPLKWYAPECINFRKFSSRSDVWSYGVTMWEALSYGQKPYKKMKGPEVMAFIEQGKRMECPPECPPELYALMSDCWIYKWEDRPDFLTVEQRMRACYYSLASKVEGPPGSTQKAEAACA
UniProt P11802: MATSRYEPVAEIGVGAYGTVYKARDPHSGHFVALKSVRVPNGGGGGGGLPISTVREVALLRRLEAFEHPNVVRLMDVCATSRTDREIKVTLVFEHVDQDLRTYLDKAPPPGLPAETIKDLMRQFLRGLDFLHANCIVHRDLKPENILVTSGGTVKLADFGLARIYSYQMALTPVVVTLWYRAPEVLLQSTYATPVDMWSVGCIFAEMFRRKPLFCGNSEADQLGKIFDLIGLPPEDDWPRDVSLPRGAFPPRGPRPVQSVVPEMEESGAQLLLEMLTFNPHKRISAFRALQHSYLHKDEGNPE
UniProt P50613: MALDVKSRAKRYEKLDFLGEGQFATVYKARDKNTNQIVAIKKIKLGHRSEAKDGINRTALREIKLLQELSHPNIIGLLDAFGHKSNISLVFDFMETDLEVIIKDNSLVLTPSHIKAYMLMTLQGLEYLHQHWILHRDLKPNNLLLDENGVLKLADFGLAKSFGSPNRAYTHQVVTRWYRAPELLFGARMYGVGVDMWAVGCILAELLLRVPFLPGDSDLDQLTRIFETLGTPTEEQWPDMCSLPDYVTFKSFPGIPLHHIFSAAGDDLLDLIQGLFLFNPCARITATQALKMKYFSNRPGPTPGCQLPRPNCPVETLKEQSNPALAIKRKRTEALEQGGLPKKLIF
UniProt P50750, whole entry: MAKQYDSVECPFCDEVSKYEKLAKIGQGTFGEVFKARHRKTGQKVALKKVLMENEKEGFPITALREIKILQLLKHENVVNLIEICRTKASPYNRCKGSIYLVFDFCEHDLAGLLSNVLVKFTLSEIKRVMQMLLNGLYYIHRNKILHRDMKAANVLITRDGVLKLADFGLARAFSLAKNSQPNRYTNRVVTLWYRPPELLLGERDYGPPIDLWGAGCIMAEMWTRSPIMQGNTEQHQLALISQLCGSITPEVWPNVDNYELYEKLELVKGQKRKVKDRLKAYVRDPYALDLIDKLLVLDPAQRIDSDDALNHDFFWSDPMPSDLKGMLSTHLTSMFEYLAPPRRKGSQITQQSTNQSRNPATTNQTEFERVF

Measured: number of time points

CC(CCc1ccccn1)(CCc1ccccn1)C(=O)c1ccccc1 (10 µM)
0: all assays above

N=C(N)NC(=N)NCCc1ccccc1 [Phenformin (hydrochloride)] (10 µM)
0: all assays above

COc1ccccc1/C=C1\C(=O)Nc2ccccc21 (10 µM)
0: all assays above

CC(C)(O)[C@@H]1CC[C@](C)([C@H]2[C@@H](O)C[C@@]3(C)[C@@H]4C[C@H](O[C@@H]5O[C@H](CO)[C@@H](O)[C@H](O)[C@H]5O)[C@H]5C(C)(C)[C@@H](O[C@@H]6OC[C@@H](O)[C@H](O)[C@H]6O[C@@H]6O[C@H](CO)[C@@H](O)[C@H](O)[C@H]6O)CC[C@@]56C[C@@]46CC[C@]23C)O1 [Astragaloside VI] (10 µM)
0: all assays above

COC(=O)N[C@@H](C)CNc1nccc(-c2cn(C(C)C)nc2-c2cc(Cl)cc(NS(C)(=O)=O)c2F)n1 [Encorafenib] (10 µM)
0: all assays above

O=S(=O)(c1cccc2cnccc12)N1CCNCC1 (10 µM)
0: all assays above

O=c1ccc2ccc(O)c(O)c2o1 [Daphnetin] (10 µM)
0: all assays above

COc1ccc(CCNc2ncc3c(=O)n(-c4cccc(F)c4)c(=O)[nH]c3n2)cc1OC (2 µM)
0: all assays above

COC1(C(=O)N[C@@H](C)c2ccc(-n3cc(F)cn3)nc2)CCC(c2nc(C)cc(Nc3cc(C)[nH]n3)n2)CC1 (stereo partly drawn) [trans-Pralsetinib] (2.5 µM)
0: all assays above

O=C1NC(=O)C(=Cc2ccc3c(c2)OCO3)S1 (10 µM)
0: all assays above

CC[C@H](Nc1ncnc2[nH]cnc12)c1oc2ccccc2c(=O)c1-c1cccc(F)c1 [Tenalisib] (10 µM)
0: all assays above

CC(C)c1cnn2c(NCc3ccccc3-n3cccn3)nc(OC3CCCNC3)nc12 (stereo unspecified) (2.5 µM)
1: CDK9
0: all other assays above

NCCCCCCNS(=O)(=O)c1cccc2c(Cl)cccc12 [W-7 (hydrochloride)] (10 µM)
0: all assays above

O=c1nc(N2CCOCC2)oc2c(-c3cccc4c3sc3ccccc34)cccc12 (10 µM)
0: all assays above

CC[C@@H](N)CNc1ccnc(-c2cc(-c3cnn(C)c3)ccc2O)n1 (2.5 µM)
0: all assays above

COc1cc(-c2cc(-c3cc(OC)c(OC)c(OC)c3)cc(C(F)P(=O)(OCOC(=O)C(C)(C)C)OCOC(=O)C(C)(C)C)c2)cc(OC)c1OC (stereo unspecified) [Stafia-1-dipivaloyloxymethyl ester] (2.5 µM)
0: all assays above

Nc1cccc(S(=O)(=O)N2CCCN(S(=O)(=O)c3ccc4c(c3)OCCO4)CC2)c1 (10 µM)
0: all assays above

CCCC(=O)Nc1nc2c(ncn2[C@@H]2O[C@@H]3COP(=O)(O)O[C@H]3[C@H]2OC(=O)CCC)c(=O)[nH]1 [Dibutyryl-cGMP (sodium)] (10 µM)
0: all assays above

O=C1NC(=O)/C(=C/c2ccc(-c3ccc(F)cc3O)o2)S1 (10 µM)
0: all assays above

CCN1/C(=C/C(C)=O)Sc2ccc(OC)cc21 (10 µM)
2: YES1
1: ZAK | CDK9
0: all other assays above

O=Nc1c(-c2c(O)[nH]c3ccccc23)[nH]c2ccccc12 [Indirubin-3'-monoxime] (2.5 µM)
0: all assays above

CC(C)c1ccc(CC(=O)N2CCN(c3ccc(C#N)nn3)CC2)cc1 (10 µM)
0: all assays above

CN(C)C(=O)c1ccc(S(=O)(=O)c2ccc(NC(=O)[C@@](C)(O)C(F)(F)F)c(Cl)c2)cc1 (10 µM)
0: all assays above

O=c1cc(-c2ccc(O)c(O)c2O)oc2ccccc12 (10 µM)
0: all assays above

C[C@@H]1COCCN1c1cc(=O)n2c(n1)N(Cc1cncc(Cl)c1)[C@H](C(F)(F)F)CC2 (10 µM)
0: all assays above

Cc1cnc(Nc2ccc(N3CCN(C)CC3)cc2)nc1Nc1cccc(S(=O)(=O)NC(C)(C)C)c1 (2.5 µM)
0: all assays above

CCN1C(=O)CNc2ncc(-c3ccc(-c4nc[nH]n4)nc3C)nc21 [CC-115 (hydrochloride)] (2.5 µM)
0: ZAP70 | CDK4
4: CDK7
1: all other assays above

COc1cc(C(=O)N2CCC(N3CCN(C)CC3)CC2)ccc1Nc1ncc2c(n1)N(C)c1ccccc1C(=O)N2C (10 µM)
0: all assays above

CC[C@@H]1C(=O)N(C)c2cnc(Nc3ccc(C(=O)N[C@H]4CC[C@H](N5CCN(CC6CC6)CC5)CC4)cc3OC)nc2N1C(C)C [Volasertib] (2.5 µM)
0: all assays above

CC[C@@H]1[C@H](F)C(=O)N[C@@H]1COc1nccc2cc(C(N)=O)c(OC)cc12 (10 µM)
0: all assays above

Cc1ccc(-c2nn(C(C)(C)CNC(=O)c3ccncc3)c3ncnc(N)c23)cc1 (2.5 µM)
0: all assays above

CC(C)Oc1ccc(-c2cnc3c(-c4ccnc5ccccc45)cnn3c2)cc1 (10 µM)
0: all assays above

c1ccc(-c2nn3c(c2-c2ccnc4cc(OCCN5CCOCC5)ccc24)CCC3)nc1 (10 µM)
0: all assays above

COc1cnccc1Nc1nc(-c2nn(Cc3c(F)cc(OCCO)cc3F)c3ccccc23)ncc1OC (10 µM)
0: all assays above

CN1C(=O)NC(Cc2c[nH]c3c(Cl)cccc23)C1=O (racemic) [Necrostatin 2 (racemate)] (10 µM)
0: all assays above

CNC(=O)c1ccc(-c2cnc3cnc(-c4ccccc4)cn23)cc1 (10 µM)
0: all assays above

CCCCCCCC/C=C\CCCCCCCC(=O)NCC(=O)O [N-Oleoyl glycine] (10 µM)
0: all assays above

COc1ccc2c(c1)c(C1=C(c3c[nH]c4ccccc34)C(=O)NC1=O)cn2CCCN(C)C (10 µM)
4: CDK9
3: CDK7
0: all other assays above

Cc1cc(C(C)Nc2ccccc2)c2nc(N3CCOCC3)cc(=O)n2c1 (stereo unspecified) (10 µM)
0: all assays above

Sorted by molecular weight (high to low): part of the list above
COc1cnccc1Nc1nc(-c2nn(Cc3c(F)cc(OCCO)cc3F)c3ccccc23)ncc1OC (10 µM)
0: all assays above

COc1ccc2c(c1)c(C1=C(c3c[nH]c4ccccc34)C(=O)NC1=O)cn2CCCN(C)C (10 µM)
4: CDK9
3: CDK7
0: all other assays above

c1ccc(-c2nn3c(c2-c2ccnc4cc(OCCN5CCOCC5)ccc24)CCC3)nc1 (10 µM)
0: all assays above

Cc1cc(C(C)Nc2ccccc2)c2nc(N3CCOCC3)cc(=O)n2c1 (stereo unspecified) (10 µM)
0: all assays above

CCCCCCCC/C=C\CCCCCCCC(=O)NCC(=O)O [N-Oleoyl glycine] (10 µM)
0: all assays above

CNC(=O)c1ccc(-c2cnc3cnc(-c4ccccc4)cn23)cc1 (10 µM)
0: all assays above

Next structures follow.

CN(C)c1nc2c(Br)c(Br)c(Br)c(Br)c2n1CC(=O)O (10 µM)
0: all assays above

CC(C)(C)Cn1c(N)nc2ccc(-c3[nH]c(C(C)(C)C)nc3-c3ccc(F)cc3)nc21 [Ralimetinib dimesylate] (2.5 µM)
0: all assays above

CC(=O)Nc1nc2ccc(-c3cnc(C)c(NC(=O)OC4CCCCC4)c3)cc2s1 (10 µM)
0: all assays above

CCC(C)(C)C(=O)N(O)Cc1ccccc1 (10 µM)
0: all assays above

Cc1ccc(-c2ccc3c(ccc4sc5c(c43)NC[C@@H](C)NC5=O)n2)cn1 (10 µM)
0: all assays above

CCN(C)C(=O)c1ccc2c(C(=Nc3ccc(CN4CCCCC4)cc3)c3ccccc3)c(O)[nH]c2c1 (2.5 µM)
0: all assays above

CNC(=O)c1cc(Oc2ccc3nc(N[C@@H]4CCCC[C@H]4O)sc3c2)ccn1 (10 µM)
0: all assays above

COc1cc(N2CCC(N(C)C)CC2)ccc1Nc1ncc(Cl)c(Nc2ccccc2P(C)(C)=O)n1 (2.5 µM)
1: CDK7
0: all other assays above

C[C@H]1Cc2ccccc2N1C(=O)Cc1nc(N2CCOCC2)cc(=O)[nH]1 (2.5 µM)
0: all assays above

CN(CC(=O)N(Cc1ccc(C2CCCCC2)cc1)c1ccc(C(=O)O)c(O)c1)S(=O)(=O)c1c(F)c(F)c(F)c(F)c1F (2.5 µM)
0: all assays above

O=C1NC(=O)C(c2cn(-c3ccccc3)nc2-c2ccc(F)cc2)N1 (stereo unspecified) (10 µM)
0: all assays above

Nc1nc2cc(-c3ccc4ncc(C(=O)N5CCOCC5)n4c3)ccc2o1 [Serabelisib] (10 µM)
0: all assays above

Cc1cc(Nc2cc(CN3CCOCC3)c3nc(C)c(Cc4ccc(Cl)cc4F)n3n2)n[nH]1 [Gandotinib] (2.5 µM)
0: all assays above

C[C@@H]1C[C@H]2O[C@@]3(O[C@@H]2C(C)(C)O)[C@H](O)[C@@]2(C)[C@@H]4CC[C@H]5C(C)(C)[C@@H](O[C@@H]6OC[C@H](O)[C@H](O)[C@H]6O)CC[C@@]56C[C@@]46CC[C@]2(C)[C@@H]13 [Cimiracemoside C] (10 µM)
0: all assays above

CC(C)C[C@H](NC(=O)[C@H](CCCCN)NC(=O)[C@H](CO)NC(=O)[C@@H](N)CC(C)C)C(N)=O [LSKL, Inhibitor of Thrombospondin (TSP-1) (TFA)] (10 µM)
0: all assays above

CN1CC[C@H](c2c(O)cc(O)c3c(=O)cc(-c4ccc(C(F)(F)F)cc4Cl)oc23)[C@H]1CO [(2S,3R)-Voruciclib (hydrochloride)] (2.5 µM)
1: CDK7
0: all other assays above

Cc1cc2cc(Oc3ccnc(Nc4cccc(CS(=O)(=O)NCCN(C)C)c4)n3)ccc2[nH]1 [Sulfatinib] (10 µM)
2: CDK7
0: all other assays above

CCCCNC(=N)NC(=N)N [Buformin (hydrochloride)] (2.5 µM)
0: all assays above

NC(=O)c1ccc(-c2cnn3ccc(NCc4cccnc4)nc23)cc1 (2.5 µM)
0: all assays above

O=C1NC(=O)C(c2cnc3ccccn23)=C1c1cn2c3c(cc(F)cc13)CN(C(=O)N1CCCCC1)CC2 (2.5 µM)
0: all assays above

CSc1ccc(CN2CCCC(Nc3ccc4[nH]ncc4c3)C2)cc1 (stereo unspecified) [Rho-Kinase-IN-1] (10 µM)
0: all assays above

O[C@H]1CC[C@H](Nc2ncc3nc(Nc4c(F)cc(F)cc4F)n([C@H]4CCOC4)c3n2)CC1 [Tanzisertib] (10 µM)
0: all assays above

O=C(Nc1ccc(Cl)cc1)C1CCCN(C(=O)c2cccc(-c3ccco3)c2)C1 (stereo unspecified) (2.5 µM)
0: all assays above

N#C/C(=C\c1ccc2oc(=O)[nH]c2c1)C(=O)c1ccc(O)c(O)c1 (10 µM)
0: all assays above

Nc1[nH]c(=O)nc2c1ncn2[C@@H]1O[C@H](CO)[C@@H](O)[C@H]1O [Crotonoside] (10 µM)
0: all assays above

O=C1NCCCc2c1oc1ccc(O)cc21 (10 µM)
0: all assays above

N#Cc1ccc(-c2c(-c3ncn[nH]3)sc(N3CCOCC3)c2C#N)c(F)c1 (10 µM)
1: CDK7
0: all other assays above

O=c1[nH]ccc2cc(OC3CCNCC3)ccc12 (10 µM)
0: all assays above

C=CC(=O)N1CCC(Oc2cc3c(Nc4ccc(Cl)c(Cl)c4F)ncnc3cc2OC)CC1 [Poziotinib] (2.5 µM)
0: all assays above

CN1CCN(CCCNc2ncc(Cl)c(-c3cc4c(C(=O)NC5CC5)cccc4s3)n2)CC1 (10 µM)
0: all assays above

O=C(CCCCCn1cc(Nc2ncc(Cl)c(Nc3ccc(Cl)cc3)n2)cn1)NO (2.5 µM)
0: all assays above

CC(C)(C)c1cc(C(c2cc3c(cc2O)OCO3)N2CCOCC2)cc(C(C)(C)C)c1O (stereo unspecified) (2.5 µM)
0: all assays above

CC(C)c1cc(/C=C(\C#N)C(N)=O)cc(C(C)C)c1O (10 µM)
0: all assays above

CC1=C(CC(=O)O)c2cc(F)ccc2/C1=C\c1ccc(C(C)C)cc1 (10 µM)
0: all assays above

CN(C)Cc1cccc(N=C(c2ccccc2)c2c(O)[nH]c3cc(C(=O)N(C)C)ccc23)c1 (10 µM)
0: all assays above

COC(=O)[C@@]1(C)CC[C@]2(C(=O)O)CC[C@]3(C)C(=CC[C@@H]4[C@@]5(C)C[C@H](O)[C@H](O[C@@H]6OC[C@@H](O[C@@H]7O[C@H](CO)[C@@H](O)[C@H](O)[C@H]7O)[C@H](O)[C@H]6O)[C@@](C)(CO)[C@@H]5CC[C@]43C)[C@@H]2C1 [Esculentoside A] (10 µM)
0: all assays above

Cn1cc(-c2cc3c(N4CCN(c5ncc([C@@](C)(N)c6ccc(F)cc6)cn5)CC4)ncnn3c2)cn1 [Avapritinib] (2.5 µM)
0: all assays above

Source: the supplement of paper PMC12823440, “Inhibitors supercharge kinase turnover through native proteolytic circuits” (Nature, 2025)
